Laboratory results: article PMC5665977
No constants are given. Whether binding was seen depends on the method and setting. Binding seen in cells or lysates may run through a third protein. These calls come from enrichment with a bait or labelling near it, and not all partners need be listed.

Target: T1, Atp10^ProtA (S. cerevisiae) (UniProt P18496)
T1 sequence: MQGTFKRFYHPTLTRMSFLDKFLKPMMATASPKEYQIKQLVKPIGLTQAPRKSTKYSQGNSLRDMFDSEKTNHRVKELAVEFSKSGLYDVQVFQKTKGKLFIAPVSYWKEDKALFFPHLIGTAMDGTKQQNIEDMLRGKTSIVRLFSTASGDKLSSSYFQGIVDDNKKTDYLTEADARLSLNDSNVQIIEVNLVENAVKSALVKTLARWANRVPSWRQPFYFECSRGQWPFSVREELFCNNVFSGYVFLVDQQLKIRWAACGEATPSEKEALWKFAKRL
Assay: affinity purification with mass spectrometry; Atp10^ProtA complexes purified by IgG-affinity chromatography from Atp10^ProtA and Atp10^ProtA ina22Δ mitochondria, BN-PAGE, LC-MS, label-free quantification

binding: binds
B1: Atp16 (protein, UniProt Q12165 23-160)
chain: AEAAAASSGLKLQFALPHETLYSGSEVTQVNLPAKSGRIGVLANHVPTVEQLLPGVVEVMEGSNSKKFFISGGFATVQPDSQLCVTAIEAFPLESFSQENIKNLLAEAKKNVSSSDAREAAEAAIQVEVLENLQSVLK
